# Test results taken from PubChem BioAssay AID540256 (National Center for Advancing Translational Sciences (NCATS), 2011).
# Hit rate of the full screen: of about 300,000 compounds, about 3,700 (1.2%) were called active. The shares of active, inactive and inconclusive entries below differ from those in the screen. Calls follow the shape of the full dose curve; tested in HEK293 cells. Where the call is inconclusive, the potency comes from a doubtful curve fit.
# Assay: qHTS for Inhibitors of binding or entry into cells for Lassa Virus; also: nearly all actives have a fitted effect of over 50% in size
# Details: Lassa virus pseudotype entry inhibition, cell reporter; series mostly up to 37.9 µM
# Potency is read from the fitted curve at half-maximal effect.
row,SMILES,Potency
1,CCOc1ccc2nc(NC(=O)c3ccc(C)o3)sc2c1,active: 8.91 µM
2,CCNC(=S)N1CCNC(=O)C1CC(=O)OC (stereo unspecified),inactive
3,COc1cc(CCC(=O)Nc2c(C(=O)N3CCN(c4ccccc4OC)CC3)oc3ccccc23)on1,"inconclusive: 7.94 µM [inhibitor, partial curve, poor fit]"
4,CC(C)C(NC(=O)OCc1ccccc1)C(=O)OCC(=O)NCc1ccco1 (stereo unspecified),"inconclusive: 20 µM [inhibitor, partial curve, poor fit]"
5,CNC(=O)COc1coc(CN2CCN(c3ccccc3)CC2)cc1=O,"inconclusive: 35.5 µM [activator, single point]"
6,Cc1cccc(C)c1NC(=O)Cn1c(=O)n(CC2CCC(C(=O)NCCc3ccccc3)CC2)c(=O)c2ccccc21 (stereo unspecified),"inconclusive: 35.5 µM [activator, single point]"
7,C/C=C(\C)CN1CCC(Oc2cccc(C(=O)NCc3ccccn3)c2)CC1,"inconclusive: 3.55 µM [activator, partial curve, poor fit]"
8,COc1ccc2c(c1)c(C(=O)CN1CCC3(CC1)OCCO3)c(C)n2Cc1ccccc1,"inconclusive: 15.8 µM [inhibitor, single point]"
9,O=C(CSc1nnc(NC(=O)c2ccc3c(c2)OCO3)s1)NCc1ccco1,"inconclusive: 5.01 µM [inhibitor, partial curve, poor fit]"
10,CN(c1ccccc1)S(=O)(=O)c1nnc(NC(=O)c2cccs2)s1,inactive
11,CCOC(=O)C1=C(NC(=S)NC(=O)c2ccccc2)c2ccccc2CC1C(C)C (stereo unspecified),active: 0.891 µM
12,O=C(Nc1ccccc1)N1CCc2scc[n+]2-c2ccccc21,inactive
13,CCOc1ccc(/C=N/NC(=O)c2ccccc2NC(=O)c2ccc(OC)cc2)cc1,inactive
14,CCOC(=O)C1=NNC(C(=O)c2ccccc2)C1c1ccc(Cl)cc1 (stereo unspecified),inactive
15,Cc1ccc(C)c(N2CCN(S(=O)(=O)c3ccc(F)c(C(=O)Nc4ccc(Cl)cc4Cl)c3)CC2)c1,"inconclusive: 31.6 µM [activator, single point]"
16,Cc1ccc2nc(-c3ccc(NC(=O)CN(c4ccccc4C)S(C)(=O)=O)cc3)sc2c1,"inconclusive: 15.8 µM [inhibitor, single point]"
17,O=C(COc1ccc(Cl)cc1)NCCc1ccccn1,"inconclusive: 0.708 µM [activator, single point]"
18,CCCCOc1ccc(CN2CCN(CCO)CC2)cc1,inactive
19,COC(=O)c1ccc(-n2nnc(-c3nsc(NC(=O)c4ccc(Cl)cc4)n3)c2C)cc1,"inconclusive: 3.16 µM [activator, partial curve]"
20,COc1ccc(NC(=O)CSc2nncs2)cc1OC,inactive
21,CCOC(=O)C1=C(c2ccccc2)NC(=S)NC1c1cc([N+](=O)[O-])ccc1OC (stereo unspecified),inactive
22,COc1ccccc1NC(=O)CCNS(=O)(=O)c1ccc2c(c1)CCN2C(=O)C1CC1,"inconclusive: 4.47 µM [activator, partial curve, poor fit]"
23,COc1ccccc1NC(=S)N(c1ccccc1)C(C)C,"inconclusive: 29.1 µM [inhibitor, single point]"
24,CCc1ccccc1N(CC(=O)NCc1ccccc1)C(=O)CCC(=O)Nc1ccccn1,inactive

row,SMILES,Potency
1,Cc1ccc2c(c1)C(=NC1CCCCC1)c1cc3ccccc3nc1-2,inactive
2,c1ccc(-c2onc3c2CCCC3)cc1,inactive
3,CC(=O)Nc1ccc(-c2csc(NC(=O)C3=COCCO3)n2)cc1,inactive
4,COC(=O)c1[nH]c2cccc(Cl)c2c1NC(=O)CN1CCCCC1C (stereo unspecified),inactive
5,O=C1C=C(c2ccccc2)C[C@H](c2cccs2)[C@H]1n1cnc([N+](=O)[O-])c1,"inconclusive: 23.1 µM [inhibitor, single point]"
6,CCOc1ccccc1NC(=O)N1CCC2(CC1)OCCO2,inactive
7,O=C(c1ccco1)N1CCN(Cc2nnc(-c3ccccc3)o2)CC1,inactive
8,Cc1cc(C)c(NC(=S)NC(NC(=O)c2ccccc2)C(Cl)(Cl)Cl)c(C)c1 (stereo unspecified),"inconclusive: 29.1 µM [inhibitor, single point]"
9,Cc1nc(-c2ccc(Cl)cc2)sc1C(=O)CBr,"inconclusive: 20 µM [activator, partial curve, poor fit]"
10,O=C(CN1C(=O)NC2(CCCC2)C1=O)N1CCN(S(=O)(=O)c2ccc(Cl)c(C(F)(F)F)c2)CC1,"inconclusive: 0.501 µM [inhibitor, full curve, poor fit]"
11,COCCCNC(=O)C1CCN(C(=O)c2ccc(-n3ccc4ccccc43)s2)CC1,"inconclusive: 35.5 µM [activator, single point]"
12,Cc1onc(-c2ccccc2)c1C(=O)N1CCOC12CCN(c1cccc(F)n1)CC2,inactive
13,O=C(OCC(=O)N1CCN(C(=O)c2ccco2)CC1)c1ccccc1Cc1ccccc1,"inconclusive: 18.3 µM [inhibitor, single point]"
14,COc1cccc2cc(C(=O)N3CCN(c4ccccn4)CC3)c(=O)oc12,inactive
15,Nc1nc(COc2ccc(F)cc2)nc(N2CCCCC2)n1,inactive
16,CCOc1ccc(-c2c(C)sc3nc[nH]c(=O)c23)cc1,"inconclusive: 8.91 µM [inhibitor, full curve, poor fit]"
17,CC(C)N1CCN(Cc2ccc(C#CC(C)(C)O)s2)CC1CCO (stereo unspecified),"inconclusive: 7.94 µM [activator, full curve, poor fit]"
18,COc1ccc(N2CCN(C(=O)c3ccccc3N(C)S(=O)(=O)c3ccccc3)CC2)cc1,"inconclusive: 22.4 µM [inhibitor, partial curve, poor fit]"
19,CCOc1ccc(Nc2nc(N)nc(CCl)n2)cc1,"inconclusive: 10 µM [inhibitor, partial curve, poor fit]"
20,CC(/C=N/NC(=O)c1ccc(CN2c3cccc4cccc(c34)S2(=O)=O)cc1)c1ccccc1 (stereo unspecified),"inconclusive: 5.62 µM [activator, single point]"
21,COC(=O)c1cc(OC)c(OC)cc1NC(=O)c1cc(-c2ccccc2)nc2ccccc12,inactive
22,O=C1Nc2ccc(Br)cc2/C1=C/C(=O)c1ccccc1,"inconclusive: 22.4 µM [inhibitor, partial curve, poor fit]"
23,CCc1ccccc1N(C)C(=O)c1cc2c(Cl)nc3ccc(C)cc3c2s1,inactive
24,Cc1cccc(NP(=O)(Oc2ccccc2)Oc2ccccc2)c1C,"inconclusive: 12.6 µM [inhibitor, single point]"

# As entered above.
# Entry for `Cc1cc(C)c(NC(=S)NC(NC(=O)c2ccccc2)C(Cl)(Cl)Cl)c(C)c1` (stereo unspecified) under Potency: inconclusive: 29.1 µM [inhibitor, single point]
# Entry for `O=C(c1ccco1)N1CCN(Cc2nnc(-c3ccccc3)o2)CC1` under Potency: inactive

# Next part:

row,SMILES,Potency
1,O=C(Cc1cccs1)Nc1nnc(C2CC2)s1,"inconclusive: 35.5 µM [inhibitor, single point]"
2,CCN(CC)c1ccc(/C=N/Nc2nc3ccccc3[nH]2)c(O)c1,active: 6.31 µM
3,O=C(c1cc(-c2cccc(Cl)c2)on1)N1CCCCCC1,"inconclusive: 35.5 µM [inhibitor, single point]"
4,Cc1ccc(-c2noc(C3CCCN(C(=O)c4ccc(F)cc4F)C3)n2)cc1 (stereo unspecified),"inconclusive: 7.3 µM [inhibitor, partial curve, poor fit]"
5,COc1cccc(C(=O)C2CN(c3ccccc3)CC2c2ccc(Cl)cc2)c1 (stereo unspecified),inactive
6,COc1ccc(NC(=O)COc2ccccc2C#N)c(S(=O)(=O)N2CCCCC2)c1,"inconclusive: 14.1 µM [inhibitor, partial curve, poor fit]"
7,O=C(NCCc1ccccc1)C(=O)NCCC1CCCCN1S(=O)(=O)c1ccccc1 (stereo unspecified),"inconclusive: 1.12 µM [inhibitor, single point]"
8,CCOC(=O)c1c(NC(=O)CN2C(=O)NC(C)(c3ccc(Cl)cc3)C2=O)sc(C(=O)NC)c1C (stereo unspecified),"inconclusive: 17.8 µM [inhibitor, partial curve, poor fit]"
9,COc1cccc(/C=C/c2nc3ccccc3c(=O)n2-c2ccc(C)c(C)c2)c1OC,"inconclusive: 35.5 µM [activator, single point]"
10,NS(=O)(=O)c1ccc(N=Cc2c(O)n(C3CCCCC3)c(=O)n(C3CCCCC3)c2=O)cc1,"inconclusive: 16.4 µM [inhibitor, single point]"
11,O=C(C(Cc1ccccc1)N1C(=O)C2C3C=CC(C3)C2C1=O)N1CCCCC1 (stereo unspecified),inactive
12,O=C(CN1C(=O)NC2(CCc3ccccc3C2)C1=O)NCc1ccco1 (stereo unspecified),"inconclusive: 5.62 µM [inhibitor, single point]"
13,CC(=O)N1c2ccccc2CC1C(=O)N1CCN(c2cc(Cl)ccc2C)CC1 (stereo unspecified),inactive
14,Cc1sc2nc(CSCC(=O)N(C)c3ccccc3)[nH]c(=O)c2c1C,inactive
15,CC(=O)Nc1cccc(N=NN2CCOCC2)c1,"inconclusive: 3.55 µM [inhibitor, partial curve, poor fit]"
16,CC(=O)Oc1ccc(C(=O)[C@H]2[C@H]3C(=O)N(c4cccc5ccccc45)C(=O)[C@H]3[C@@H]3C=CC=NN32)cc1,"inconclusive: 32.6 µM [activator, partial curve, poor fit]"
17,CCC(C(=O)Nc1ccc(F)cc1F)n1nc(-c2ccccc2)c2c(c1=O)CCCC2 (stereo unspecified),inactive
18,COC(=O)c1ccc(N2C(=O)C3CC=CC(C)C3C2=O)cc1 (stereo unspecified),inactive
19,CCCCCCOc1ccc(NC(=O)CC2C(=O)N(CC)C(=S)N2Cc2ccco2)cc1 (stereo unspecified),"inconclusive: 29.1 µM [inhibitor, single point]"
20,COc1ccc(N2CCN(C(c3cccc(OC)c3OC)c3nnnn3C3CCCC3)CC2)cc1 (stereo unspecified),active: 2.82 µM
21,O=Cc1ccc(OCc2nnc(-c3ccccc3Br)o2)cc1,inactive
22,c1ccc(-c2nnc(SCC3CCCO3)nc2-c2ccccc2)cc1 (stereo unspecified),inactive
23,NC(=O)c1cn(Cc2c(F)cccc2F)nn1,inactive

# Structural class: those above with a nitro group on carbon (two)
row,SMILES,Potency
21,CCOC(=O)C1=C(c2ccccc2)NC(=S)NC1c1cc([N+](=O)[O-])ccc1OC (stereo unspecified),inactive
5,O=C1C=C(c2ccccc2)C[C@H](c2cccs2)[C@H]1n1cnc([N+](=O)[O-])c1,"inconclusive: 23.1 µM [inhibitor, single point]"
